From paper PMC7654213
These are yes or no findings as the source states them, for the method shown. In cells and extracts the contact can be indirect. Binding can be weak; no strength is given.

By UniProt entry, the sequences of proteins in these tests, tags left out. Where a name states a change or a piece, a line headed by the entry shows the natural chain unless it says otherwise.
UniProt P78536: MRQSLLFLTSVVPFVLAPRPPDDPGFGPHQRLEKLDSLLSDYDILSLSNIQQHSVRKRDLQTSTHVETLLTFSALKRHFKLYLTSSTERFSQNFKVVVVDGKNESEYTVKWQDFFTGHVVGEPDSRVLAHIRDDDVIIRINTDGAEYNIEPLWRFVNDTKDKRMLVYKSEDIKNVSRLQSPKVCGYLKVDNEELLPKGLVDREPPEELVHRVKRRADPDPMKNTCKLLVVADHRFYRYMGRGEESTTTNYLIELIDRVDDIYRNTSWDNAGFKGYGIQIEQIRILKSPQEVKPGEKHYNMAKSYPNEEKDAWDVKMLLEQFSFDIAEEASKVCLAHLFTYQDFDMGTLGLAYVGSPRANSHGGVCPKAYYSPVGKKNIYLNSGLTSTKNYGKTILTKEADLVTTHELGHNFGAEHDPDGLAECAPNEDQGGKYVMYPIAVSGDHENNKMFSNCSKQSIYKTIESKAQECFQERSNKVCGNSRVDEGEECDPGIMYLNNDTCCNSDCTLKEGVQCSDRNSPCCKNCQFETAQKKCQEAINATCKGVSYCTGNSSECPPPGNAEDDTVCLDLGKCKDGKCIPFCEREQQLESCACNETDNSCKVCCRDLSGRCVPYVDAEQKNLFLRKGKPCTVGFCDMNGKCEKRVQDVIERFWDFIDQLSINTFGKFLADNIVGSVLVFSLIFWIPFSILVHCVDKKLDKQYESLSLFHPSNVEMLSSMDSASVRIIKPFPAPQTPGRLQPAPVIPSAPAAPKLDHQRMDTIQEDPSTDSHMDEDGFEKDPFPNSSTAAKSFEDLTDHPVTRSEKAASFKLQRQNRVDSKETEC

Molecular target: 2xFlag-ADAM17 (UniProt P78536)
Assay: co-IP; 293T cells cotransfected with pcDNA-2xHA-CD82 and pcDNA-2xFlag-ADAM17, harvested after 72 hours; lysis in 50 mM Tris-HCl pH 7.4, 150 mM NaCl, 1 mM EDTA, 1% Triton X-100; primary antibody overnight at 4°C, protein A or G agarose beads, Western blot

B1: 2xHA-CD82 (protein, UniProt P27701 1-267)
chain: MGSACIKVTKYFLFLFNLIFFILGAVILGFGVWILADKSSFISVLQTSSSSLRMGAYVFIGVGAVTMLMGFLGCIGAVNEVRCLLGLYFAFLLLILIAQVTAGALFYFNMGKLKQEMGGIVTELIRDYNSSREDSLQDAWDYVQAQVKCCGWVSFYNWTDNAELMNRPEVTYPCSCEVKGEEDNSLSVRKGFCEAPGNRTQSGNHPEDWPVYQEGCMEKVQAWLQENLGIILGVGVGVAIIELLGMVLSICLCRHVHSEDYSKVPKY
  binding: binds
